Reference: PubChem BioAssay AID686938 (Drosophila RNAi Screening Center, 2013)
In all, the deposit lists about 23,000 reagents; below is a random part of those with a known target gene and a result. Of all reagents, 75 (0.33%) are marked active. 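Raw plate signals without normalisation; calls rest on plate z-scores that were not deposited; ratio present for only 364 wells.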 Unmarked entries are inactive. The numbers tell different reagents against one gene apart. Names joined by + are all predicted targets of the reagent. The record does not give: the dose of the treatment.

Purpose: 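Looking for CRAC channel components and the factors controlling them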 (primary screen)
Cell system: Drosophila S2R+ cells
Reagent: long dsRNA against Drosophila genes, about 0.25 µg dsRNA per well, roughly 10,000 cells
Duration: 5 days of knock-down before the calcium assay
Challenge: thapsigargin (SERCA pump blocker) to empty calcium stores; entry signal taken 4 min after adding it
Measured: 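Per-well fluo-4 fluorescence in two replicates, unnormalised, measured in resting cells and 4 min after store depletion by the SERCA blocker thapsigargin; ratio of the two present in few wells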
Reading the numbers: calcium entry signal: higher = stronger calcium signal after store depletion; entry to resting ratio: higher = more calcium entry relative to resting level; resting calcium signal: higher = higher resting calcium signal
Units: calcium entry signal in fluorescence units; resting calcium signal in fluorescence units
Active means: 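Called when the plate z-score of the entry-to-rest ratio, mean of duplicates, falls below −3; wells with low overall dye signal (Fmax z below −2) or more than five off-targets excluded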
Calls: active = strongly reduced calcium entry; inactive = no strong reduction

l(3)73Ah (GeneID 48903)
- calcium entry signal, replicate 1: 3.63e7
- calcium entry signal, replicate 2: 4.98e7
- resting calcium signal, replicate 1: 1.72e7
- resting calcium signal, replicate 2: 2.21e7

RpS15Ab + RpS15Aa #1
- calcium entry signal, replicate 1: 1.23e7
- calcium entry signal, replicate 2: 4.39e7
- resting calcium signal, replicate 1: 9.00e6
- resting calcium signal, replicate 2: 1.88e7

RpS15Ab + RpS15Aa #2
- calcium entry signal, replicate 1: 1.37e7
- calcium entry signal, replicate 2: 1.52e7
- resting calcium signal, replicate 1: 1.03e7
- resting calcium signal, replicate 2: 1.11e7

CG10809 (GeneID 39159)
- calcium entry signal, replicate 1: 2.61e7
- calcium entry signal, replicate 2: 4.65e7
- resting calcium signal, replicate 1: 1.41e7
- resting calcium signal, replicate 2: 1.96e7

Acsl (GeneID 46068)
- calcium entry signal, replicate 1: 4.89e7
- calcium entry signal, replicate 2: 5.29e7
- resting calcium signal, replicate 1: 1.96e7
- resting calcium signal, replicate 2: 2.36e7

CG15923 (GeneID 42443)
- calcium entry signal, replicate 1: 4.76e7
- calcium entry signal, replicate 2: 4.06e7
- resting calcium signal, replicate 1: 2.33e7
- resting calcium signal, replicate 2: 1.82e7

CG30172 (GeneID 246496)
- calcium entry signal, replicate 1: 4.16e7
- calcium entry signal, replicate 2: 4.12e7
- resting calcium signal, replicate 1: 2.08e7
- resting calcium signal, replicate 2: 1.93e7

Reg-2 (GeneID 38075)
- calcium entry signal, replicate 1: 4.49e7
- calcium entry signal, replicate 2: 4.04e7
- resting calcium signal, replicate 1: 2.18e7
- resting calcium signal, replicate 2: 1.93e7

CG42809 (GeneID 10178894)
- calcium entry signal, replicate 1: 3.91e7
- calcium entry signal, replicate 2: 2.81e7
- resting calcium signal, replicate 1: 1.62e7
- resting calcium signal, replicate 2: 1.27e7

ifc (GeneID 33836)
- calcium entry signal, replicate 1: 4.26e7
- resting calcium signal, replicate 1: 2.39e7

ATPsynE (GeneID 41745)
- calcium entry signal, replicate 1: 3.46e7
- calcium entry signal, replicate 2: 3.96e7
- resting calcium signal, replicate 1: 1.47e7
- resting calcium signal, replicate 2: 1.85e7

Sgs4 (GeneID 31304)
- calcium entry signal, replicate 1: 3.28e7
- calcium entry signal, replicate 2: 6.97e7
- entry to resting ratio: 2
- resting calcium signal, replicate 1: 1.67e7
- resting calcium signal, replicate 2: 2.77e7

CG43278 (retired record) (GeneID 12797947)
- calcium entry signal, replicate 1: 2.90e7
- calcium entry signal, replicate 2: 3.95e7
- resting calcium signal, replicate 1: 1.32e7
- resting calcium signal, replicate 2: 1.78e7

CG42633 (GeneID 8674052)
- calcium entry signal, replicate 1: 4.23e7
- calcium entry signal, replicate 2: 3.50e7
- resting calcium signal, replicate 1: 2.13e7
- resting calcium signal, replicate 2: 1.83e7

lectin-29Ca (GeneID 53547)
- calcium entry signal, replicate 1: 4.02e7
- calcium entry signal, replicate 2: 5.79e7
- resting calcium signal, replicate 1: 1.99e7
- resting calcium signal, replicate 2: 2.52e7

CG14691 (GeneID 41287)
- calcium entry signal, replicate 1: 3.53e7
- calcium entry signal, replicate 2: 3.91e7
- resting calcium signal, replicate 1: 1.72e7
- resting calcium signal, replicate 2: 1.94e7

Grx1 (GeneID 40053)
- calcium entry signal, replicate 1: 1.86e7
- calcium entry signal, replicate 2: 5.09e7
- resting calcium signal, replicate 1: 1.04e7
- resting calcium signal, replicate 2: 1.91e7

CG4887 (GeneID 33304) #1
- calcium entry signal, replicate 1: 4.38e7
- calcium entry signal, replicate 2: 5.07e7
- resting calcium signal, replicate 1: 1.88e7
- resting calcium signal, replicate 2: 2.25e7

CG4887 (GeneID 33304) #2
- calcium entry signal, replicate 1: 4.25e7
- calcium entry signal, replicate 2: 3.56e7
- resting calcium signal, replicate 1: 2.62e7
- resting calcium signal, replicate 2: 1.68e7

tinc (GeneID 42148) #1
- calcium entry signal, replicate 1: 2.48e7
- calcium entry signal, replicate 2: 2.98e7
- resting calcium signal, replicate 1: 4.01e7
- resting calcium signal, replicate 2: 1.33e7

tinc (GeneID 42148) #2
- calcium entry signal, replicate 1: 3.38e7
- calcium entry signal, replicate 2: 3.16e7
- resting calcium signal, replicate 1: 3.68e7
- resting calcium signal, replicate 2: 1.48e7

tinc (GeneID 42148) #3
- calcium entry signal, replicate 1: 3.89e7
- calcium entry signal, replicate 2: 3.63e7
- resting calcium signal, replicate 1: 3.57e7
- resting calcium signal, replicate 2: 1.62e7

tinc (GeneID 42148) #4
- calcium entry signal, replicate 1: 3.18e7
- calcium entry signal, replicate 2: 2.70e7
- resting calcium signal, replicate 1: 3.80e7
- resting calcium signal, replicate 2: 1.20e7

CG12723 (GeneID 32271)
- calcium entry signal, replicate 1: 4.84e7
- calcium entry signal, replicate 2: 3.16e7
- resting calcium signal, replicate 1: 2.25e7
- resting calcium signal, replicate 2: 1.66e7

RpL10Aa (GeneID 41811)
- calcium entry signal, replicate 1: 2.23e7
- calcium entry signal, replicate 2: 3.79e7
- resting calcium signal, replicate 1: 1.23e7
- resting calcium signal, replicate 2: 5.93e7

CG14331 (GeneID 42099)
- calcium entry signal, replicate 1: 3.67e7
- calcium entry signal, replicate 2: 5.00e7
- resting calcium signal, replicate 1: 1.71e7
- resting calcium signal, replicate 2: 6.70e7

Jabba (GeneID 37164)
- calcium entry signal, replicate 1: 4.06e7
- calcium entry signal, replicate 2: 3.45e7
- resting calcium signal, replicate 1: 1.90e7
- resting calcium signal, replicate 2: 1.64e7
